Source: ChEMBL document CHEMBL3988442, “University of Dundee, Small-Polar-MMV Screening Library” (2021).

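Viability assay of Plasmodium falciparum sporozoites; the read-out is not stated. The concentration is filed as 10 mM, unlikely as a test dose, so the dose is not known. The record gives no direction; compounds that gave an IC50 in retests scored well above the rest, so higher reads as lower viability. Strong results were mostly tested again. About 34,000 compounds were tested under these conditions; 0.84% (about 280) showed 50% or more at least once.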

Each number is a percent effect as filed.
The record does not define 0% and 100%; most values in the screen are far below 50% and negative numbers occur (in some assays of this library far below -100).
The compounds are a random part of those screened.
Two or more numbers in one place are separate tests of the same structure; such repeats can differ widely.

For COc1cccc2c1OCC(C(=O)N1CCC(N3CCOC3=O)CC1)C2 (centres unmarked) the result was 9.044%.
For CC(=O)N1CCN([C@@H]2CCC[C@@H](N(C)C(=O)C3CC3)[C@H]2O)CC1 the result was 12.89%.
For CCc1cnc(N2CC3(CCN(Cc4ccsc4)C3)C2)nc1.O=C(O)C(F)(F)F the result was -10.18%.
For CCCc1n[nH]c(C2CN(Cc3nnc(C4CC4)n3C)CCO2)n1 (centres unmarked) the result was 2.899%.
For C[C@]1(O)CN(CCC(N)=O)CC[C@@H]1Oc1cccc(F)c1 the result was 0.1674%.
For FC(F)(F)c1cccc(C2(CNCc3ccncc3)CCOCC2)c1 the result was -0.6764%.
For Cc1ccc(NC2CCN(C(=O)c3ccc(F)c(C)c3)CC2)nn1 the result was 10.54%.
For COc1ccc(-c2nc(CNC3CCc4nc(C)nn4C3)no2)cc1 (centres unmarked) the result was 2.59%.
For O=C(NC[C@]1(O)CN(Cc2ccccc2F)C[C@H]1O)c1ccccn1 the result was 4.24%.
For Cn1ccnc1CN1CCN(CC(=O)NCc2cccs2)CC1 the result was 11.24%.
For CCCNc1ccc(C(=O)NCCc2ccc(Cl)cc2)cn1 the result was -24.2%.
For CC1COCCN1Cc1nc(-c2ccsc2)no1 (centres unmarked) the result was 0.2452%.
For CN1C(=O)C(c2cccnc2)CC12CCN(C(=O)c1cccn1C)CC2 (centres unmarked) the result was -8.117%.
For CCOC1CCCN(C(=O)c2sccc2-n2cnnn2)C1 (centres unmarked) the result was 0.6441%.
For CCc1c(C)nc2cc(C3CCN(Cc4cccc(F)c4)C3)nn2c1O (centres unmarked) the result was 9.29%.
For CC(C)c1nccn1CC(=O)Nc1ccnn1C(C)C(C)C (centres unmarked) the result was -7.601%.
For COCC(=O)NCc1cc(=O)n2c(n1)CN(CC1CC1)CCC2.O=C(O)C(F)(F)F the result was 11.1%.
For Cc1cc(NC(=O)N(CCO)Cc2ccsc2)no1 the result was 4.535%.
For Cc1csc(C2CCCN(C(=O)c3c(C)nn4cccnc34)C2)n1 (centres unmarked) the result was -13.42%.
For CCOC1COC2(CCN(Cc3cccnc3OC)CC2)C1.O=C(O)C(F)(F)F.O=C(O)C(F)(F)F (centres unmarked) the result was 13.86%.
For NC(=O)COc1cccc(C(=O)N2CCCC(n3cccn3)C2)c1 (centres unmarked) the result was 2.256%.
For CC(C)n1ccnc1CN1CCCN(C(=O)COC2CCCC2)CC1 the result was -19.09%.
For O=C(NCc1cccnc1)N[C@H]1CC[C@@]2(CCC(=O)N2CC2CC2)CC1.O=C(O)C(F)(F)F the result was 23.12%.
For CCCc1noc(CN2CCCCC2Cn2cncn2)n1 (centres unmarked) the result was 8.375%.
For Cc1nc(CN2CCC23CCN(Cc2ccoc2)CC3)cs1 the result was 11.56%.
For Cc1ccc(CC(=O)N2CSCC2C(=O)N(C)Cc2ccco2)o1 (centres unmarked) the result was -17.2%.
For Cc1nccn1[C@@H]1CC[C@@H](NC(=O)CCCn2cncn2)[C@H]1O the result was -160.4%.
For O=S(=O)(CCNC1CCc2ncnn2C1)c1ccc(Cl)cc1 (centres unmarked) the result was -9.588%.
For COc1ccnc(NC(=O)c2cscn2)c1 the result was -53.85% & 89.52% & -49.63%.
For CC(C)OC(=O)[C@@H]1CCN(C(=O)c2ccccn2)[C@@H]1c1ccc(F)cc1 the result was -1.023%.
For Cc1nc(C2CCCN(C(=O)CCn3ccccc3=O)C2)no1 (centres unmarked) the result was 2.465%.
For CS(=O)(=O)NCC1CCCN(Cc2ccc(F)c3cccnc23)C1 (centres unmarked) the result was -9.16%.
For [H][C@@]12CCN(Cc3scnc3C)C[C@@]1([H])O[C@@H](c1ccncn1)C2 the result was -5.251%.
For Cc1nccn1C1CCCN(C(=O)c2cnn(C)c2C2CC2)C1 (centres unmarked) the result was -4.029%.
For CCCNC(=O)c1cc2c(s1)CCN2c1ncccn1 the result was 11.73%.
For CCc1c(C(=O)N2CCCC(N(C)C)C2)cnn1C(C)(C)C (centres unmarked) the result was 3.648%.
For CS(=O)(=O)N1CCOCC12CCN(Cc1ccc(F)cc1)CC2.O=C(O)C(F)(F)F the result was 2.773%.
For CC(C)CN(Cc1ccccn1)Cc1ccccc1C(=O)O the result was 7.692%.
For Cc1cccc(N2CCN(C(=O)Cc3ccccc3O)C(C)C2)n1 (centres unmarked) the result was 6.267%.
For CC(=O)c1ccc(OCC(=O)c2cccn2C)cc1 the result was -9.644% & -16.31%.
For CCNc1cc2c(nn1)CCN(C(=O)c1ccc3c(c1)OCO3)C2 the result was 6.984%.
For CCOCC1CN(C(=O)c2ccnnc2)Cc2cnn(C)c21 (centres unmarked) the result was 25.13%.
For Cc1cc(C)c(CNC(=O)NCc2ccc(F)cc2)c(=O)[nH]1 the result was 12.96%.
For CCC(=O)N1CCC(Cc2ccccc2-c2ccncc2)(C(=O)NC)C1 (centres unmarked) the result was -1.966%.
For COc1ncccc1C(=O)N1CCC(Nc2ccc(C)nn2)CC1 the result was 22.68%.
For Cc1cnc2c(S(=O)(=O)NCC3CCS(=O)(=O)C3)cccc2c1 (centres unmarked) the result was 10.68%.
For CN(C)C(=O)CN1CCC2(CC1)COC2 the result was 6.33%.
For [H][C@@]12CCCO[C@]1([H])[C@@H](OCC1CCOCC1)CN2C(=O)c1ccc(C)o1 the result was -11.51%.
For O=C(O)C(F)(F)F.[H][C@]12CN(Cc3ccc(C)cc3)C[C@@]1([H])S(=O)(=O)CC[C@@H]2C(=O)NCC1CC1 the result was -3.421%.
For O=C(NCc1ccccc1)N1CCn2c(Cn3cccn3)cnc2C1 the result was 17%.
For Nc1nccc(N2CCCC(CO)(CCOc3ccccc3)C2)n1 (centres unmarked) the result was -5.234%.
For Cc1nn(C)cc1CNCc1ccc(N(C)C)cc1 the result was -5.646%.
For Cc1noc(C)c1CNc1cc(N2CCCC2CO)ncn1 (centres unmarked) the result was 1.193%.
For CN1C(=O)C(c2cccnc2)CC12CCN(CCO)CC2 (centres unmarked) the result was -6.066%.
For CC(C)CC1CC(=O)Nc2c1cnn2Cc1ccco1 (centres unmarked) the result was -10.26%.
For CCc1c(C)nc2n(c1=O)CC(C(=O)Nc1ncccc1C)CS2 (centres unmarked) the result was 9.758%.

3 of the entries, repeated:

With FC(F)(F)c1cccc(C2(CNCc3ccncc3)CCOCC2)c1 the screen gave -0.6764%.
With Cc1nn(C)cc1CNCc1ccc(N(C)C)cc1 the screen gave -5.646%.
With COCC(=O)NCc1cc(=O)n2c(n1)CN(CC1CC1)CCC2.O=C(O)C(F)(F)F the screen gave 11.1%.